# Laboratory results reported in patent US20240342138A1, “MICROTUBULE TARGETING AGENTS” (BPGbio, Inc., priority 2023, published 2024).
# Assay: Blood brain barrier permeability (PVDF membrane coated with porcine brain polar lipid extract)
# Assay type: in vitro ADME
# Conditions: PAMPA, read-out: Mean Pe
# Experimental: Preparation of Donor Solution a) 0.2 mM working solution was prepared by diluting 10 mM stock solution with DMSO. b) 10 μM donor solution (5% DMSO) was prepared by diluting 20 μL of working solution with 380 μL PBS. 2) 150 μL of 10 μM donor solutions to each well of the donor plate, whose PVDF membrane was precoated with 5 μL of 1% brain polar lipid extract (Porcine)/dodecane mixture. Duplicates were prepared. 3) 300 μL of PBS was added to each well of the PTFE acceptor plate. 4) The donor plate and acceptor plate were combined together and incubated for 4h at room temperature with shaking at 300 rpm. 5) Preparation of TO sample: 20 μL donor solution was transferred to new well followed by the addition of 250 μL PBS (DF: 13.5), 130 μL ACN (containing internal standard) as TO sample. 6) Preparation of acceptor sample: The plate was removed from incubator. 270 μL solution was transferred from each acceptor well and mixed with 130 μL ACN (containing internal standard) as acceptor sample. 7) Preparation of donor sample: […] was transferred from each donor well and mixed with 250 μL PBS (DF: 13.5), 130 μL ACN (containing internal standard) as donor sample. 8) Acceptor samples and donor samples were all analyzed by LC/MS/MS.
compound,measurement,value
CC(C)NCC(O)COc1ccc(CC(N)=O)cc1 (stereo not shown) [Atenolol],"Papp at 4 h, 10 μM",< 0.00346 ×10⁻⁶ cm/s
